The record followed here is article PMC7819943, “Rice protein-binding microarrays: a tool to detect cis-acting elements near promoter regions in rice”.

Sequences of proteins named here, by UniProt entry; tags and fusion partners are left off.
UniProt Q0JBA9, entry or part of it: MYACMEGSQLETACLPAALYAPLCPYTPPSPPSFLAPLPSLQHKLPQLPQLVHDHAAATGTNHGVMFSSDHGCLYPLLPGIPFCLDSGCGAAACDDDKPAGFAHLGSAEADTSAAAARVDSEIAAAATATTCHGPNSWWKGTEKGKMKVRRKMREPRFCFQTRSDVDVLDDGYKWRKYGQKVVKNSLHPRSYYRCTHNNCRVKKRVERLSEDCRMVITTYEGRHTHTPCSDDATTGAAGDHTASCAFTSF

The list shows a part of the results.

The experiment has as its target OsWRKY34 (Oryza sativa, UniProt Q0JBA9 1-250). Kind of experiment: protein-binding microarray (RPBM); PBS, 2% BSA, 51.3 ng/ul salmon testes DNA, 50 uM zinc acetate, 200 nM TF, 25 C, 1 h; high values mean tight binding. Conditions: protein: recombinant; tags: N-terminal polyhistidine and DsRed monomer fusion (pET32a); label: CyDye5-dUTP incorporated in the synthesized complementary strand; 3' TTTTT single-stranded linker to array surface; dsDNA, one strand shown. The method in brief:
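An Axon 4000B scanner gave the binding signal as per-feature fluorescence intensity in arbitrary units. This followed washing of a custom Agilent array that had been incubated for 1 h at 25 °C with 200 nM protein in PBS, 2% BSA, salmon testes DNA and 50 µM zinc acetate. The proteins were transcription factors fused at the N-terminus to polyhistidine and DsRed, expressed in E. coli BL21-CodonPlus and purified on Ni–NTA.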
As to “CTATCGATATAATCTCTAAGTGAGTTTTTTGTATTTTTTTCGGAGTCACCTAGTGCAG”, the binding signal is 8020 fluorescence intensity (a.u.). The figure for “GTGGAGAATCCATCGCTTTTCCGCTTTTCCCGCACCAAATCGGAGTCACCTAGTGCAG” is 9930 fluorescence intensity (a.u.); for “CGTAATTCCTTCCGCGCTTTCCGAGTTTTTTTTTTCCATTCGGAGTCACCTAGTGCAG” it is 14400 fluorescence intensity (a.u.).

In the case of “AACAATCTACGTCTCGTCTCGTCACGGCCCAATCCACGATCGGAGTCACCTAGTGCAG”, the binding signal is 9430 fluorescence intensity (a.u.). Turning to “AAACTTTCAACTTTTTTCTCACATCGTTCTAATTTCAACTCGGAGTCACCTAGTGCAG”, the binding signal was 8770 fluorescence intensity (a.u.). The figure for “CCCGCTCACGCCGCCGCATCCGCCTTCCGCTCGCGCCGCCCGGAGTCACCTAGTGCAG” is 9060 fluorescence intensity (a.u.); for “ATCTTAAGCCATTCTTGTATAATTAGCATTTGTTTCTTGGCGGAGTCACCTAGTGCAG” it is 9080 fluorescence intensity (a.u.); for “CCTTGTACCGTGGGGCGGAGGGAGTAGTAGAGTTTATTCACGGAGTCACCTAGTGCAG” it is 9890 fluorescence intensity (a.u.). In the case of “CGGTGAATGGTTTGAGTAAGTTTAGGGGTAGACGTTTCTGCGGAGTCACCTAGTGCAG”, the binding signal is 8410 fluorescence intensity (a.u.). With “GCCCACTAGCCCTGCTCGCTCCGGCTTCCCCGACTCCATGCGGAGTCACCTAGTGCAG”, the binding signal was 8530 fluorescence intensity (a.u.). As for “ATTGGACGACTTAAATACCACTTGTCGTGTCGTTCTCACTCGGAGTCACCTAGTGCAG”, the binding signal is 9100 fluorescence intensity (a.u.). As for “ATTTGTGATGTGGATTTGGGGTGTTACTTTGATTTGGGGACGGAGTCACCTAGTGCAG”, the binding signal was 12900 fluorescence intensity (a.u.).

“AGTCTAAACTCAAACTTTCTCACTGTTATAAGCTTTTCTTCGGAGTCACCTAGTGCAG”: the binding signal was 8920 fluorescence intensity (a.u.).

For the sequence “TTCTCTCACTCTCTCGTGATACTGCAGTAGCCTTTTTCCACGGAGTCACCTAGTGCAG”, the binding signal was 8160 fluorescence intensity (a.u.). Turning to “GTTTTGGTAGTGGCTGGGAGTACATTTGATTTGAGCCATGCGGAGTCACCTAGTGCAG”, the binding signal is 8060 fluorescence intensity (a.u.). As for “AGCGGTAAATTGTGTTTGTTGTTAATTTGTCTTTAATTCCCGGAGTCACCTAGTGCAG”, the figure is 8980 fluorescence intensity (a.u.). For the sequence “GTATATATAGTCATTGACATCACACACACATTACGGTCATCGGAGTCACCTAGTGCAG”, the binding signal was 9910 fluorescence intensity (a.u.).

For the sequence “TTCTCTCTCTTTCTCTCTCTCTCGCAATTTTTCCCCATCACGGAGTCACCTAGTGCAG”, the binding signal was 8220 fluorescence intensity (a.u.).

For the sequence “ATTCCTTGTTGGTAACTGTACCCAGGGGCGGGTCCAACGTCGGAGTCACCTAGTGCAG”, the binding signal is 8270 fluorescence intensity (a.u.). The figure for “GAGCCCACTCTTCCCACTTCCCTAGTACTATCACACACACCGGAGTCACCTAGTGCAG” is 8850 fluorescence intensity (a.u.); for “AGATTGATTGCCGTGTTCATGCGTAGCCACCGTCCCTAAACGGAGTCACCTAGTGCAG” it is 11600 fluorescence intensity (a.u.). On to “GTGGTGGGTGCGCGACGTATGGCAGGGGAAATTCAGCTCTCGGAGTCACCTAGTGCAG”, for which the binding signal is 11600 fluorescence intensity (a.u.). The figure for “ACGCCTACAATGGTACTGTGTTTTTTTTATGATAGCGGTGCGGAGTCACCTAGTGCAG” is 8060 fluorescence intensity (a.u.). The figure for “ATTTTGGTACTACTCTATATTTTAGTTTGCAGCTTGTGCTCGGAGTCACCTAGTGCAG” is 10600 fluorescence intensity (a.u.). As for “CTCAGTTCCTGCCTCCGCCGACTGTTTCTTCTTCTTTGAGCGGAGTCACCTAGTGCAG”, the binding signal was 9010 fluorescence intensity (a.u.). For the sequence “CTCTCTTGTTACGTTTTTTTCCATTTTGTTGTGGCGGATGCGGAGTCACCTAGTGCAG”, the binding signal was 8990 fluorescence intensity (a.u.). The figure for “CCTCCTGCACCCGACACCATACGCCCGCTCTCTCTGACACCGGAGTCACCTAGTGCAG” is 9410 fluorescence intensity (a.u.); for “ACATCAGGAGGAGGGGAGGTCCGGGAGGAAGAAGAAAGGGCGGAGTCACCTAGTGCAG” it is 10900 fluorescence intensity (a.u.). Turning to “AGCACCTCTTTTCTTTTTCATTTCTCCTGTGTGGATAGATCGGAGTCACCTAGTGCAG”, the binding signal is 12000 fluorescence intensity (a.u.).

On to “AGGGTTTTCTATCTATCCATCTAGATTTTGATCTTCCCCTCGGAGTCACCTAGTGCAG”, for which the binding signal is 8990 fluorescence intensity (a.u.). On to “GAAACCCTCGTTGCATCACCTCCACATTTCACTCGTTTGCCGGAGTCACCTAGTGCAG”, for which the binding signal is 8540 fluorescence intensity (a.u.).

As to “TATTTTGGTAGTGCCCTTATACTATTTGGTCATTTTCTAGCGGAGTCACCTAGTGCAG”, the binding signal is 9840 fluorescence intensity (a.u.). As for “AAACAACACTTTTGGTCAATATACACACTCCGTAATCACCCGGAGTCACCTAGTGCAG”, the figure is 10500 fluorescence intensity (a.u.); as for “AATGGTCAAACATGTGAGAAAAAGTCAACGGCGTTATCTACGGAGTCACCTAGTGCAG”, 15500 fluorescence intensity (a.u.). The figure for “TAAGGGGCATAGTTATTTCTCTTCACTGATAGTTTGTCTGCGGAGTCACCTAGTGCAG” is 8090 fluorescence intensity (a.u.). Regarding “CTTTAACCAGCGCATCACAATCCACATCGATTGGTTACTTCGGAGTCACCTAGTGCAG”, the binding signal is 9650 fluorescence intensity (a.u.). In the case of “TAGTTAGCAGGTTTTGCACCCATTCAATGTGTTCTGTGTTCGGAGTCACCTAGTGCAG”, the binding signal was 8160 fluorescence intensity (a.u.). With “AAGTAGGGGCGAGAGTGGTTGGTTGGGTACGGGAAAAATACGGAGTCACCTAGTGCAG”, the binding signal was 9140 fluorescence intensity (a.u.). With “GGACCCACATGTCAGCATCACATTTTTTTCTGTCTCCTCCCGGAGTCACCTAGTGCAG”, the binding signal is 8210 fluorescence intensity (a.u.). With “ACCCTCTCGCCCGGCTGGTGCTGCTTCCTGCAAAGTAACACGGAGTCACCTAGTGCAG”, the binding signal is 9850 fluorescence intensity (a.u.). The figure for “ATTCCTCACATTTTACATTTTTACATTGGGTTTTGCATTTCGGAGTCACCTAGTGCAG” is 9990 fluorescence intensity (a.u.); for “CGCCGTTGACTTTTCATATAATATTTAACAATTCGCTTTACGGAGTCACCTAGTGCAG” it is 36800 fluorescence intensity (a.u.); for “GCCAATGCCCTGGAAAGTGTATATCTGGGTTTCCTTTACTCGGAGTCACCTAGTGCAG” it is 8930 fluorescence intensity (a.u.).

As to “ATTCATGTTTACATTTCCAGGTACATATTTACATTCGCCACGGAGTCACCTAGTGCAG”, the binding signal was 9000 fluorescence intensity (a.u.). As for “TTCAGCCGTGACTTTTTTTACTATGTCTACCAACAAACTACGGAGTCACCTAGTGCAG”, the figure is 10400 fluorescence intensity (a.u.); as for “CTCAGCCTCATCACTCACGAGCAATCAGCTAGCTAGCTTACGGAGTCACCTAGTGCAG”, 8120 fluorescence intensity (a.u.). The figure for “TACTCCATTTCGTAGCTAGTTTGCACATCACCAAACATTCCGGAGTCACCTAGTGCAG” is 8600 fluorescence intensity (a.u.). “GTTGCCAACCGCCACCGTCCTTGCCGCCGCCGTCGCCTCCCGGAGTCACCTAGTGCAG”: the binding signal is 11700 fluorescence intensity (a.u.).

With “CTCGAACCACTGACCATCCCGTCCACACTGCACCGCGCTACGGAGTCACCTAGTGCAG”, the binding signal is 8260 fluorescence intensity (a.u.). As for “GATCATCTGGTGGTGTGTTCTACGGGTTGCAGCTTCTTTCCGGAGTCACCTAGTGCAG”, the figure is 10600 fluorescence intensity (a.u.); as for “CACGGGTACTTTTGCTAAACCAAACAACAATTTTGGTCAACGGAGTCACCTAGTGCAG”, 8680 fluorescence intensity (a.u.); as for “GAGCACATGAACAGCTGATTATTTTTTTATCTGTGTGTTACGGAGTCACCTAGTGCAG”, 8330 fluorescence intensity (a.u.).

Take “ATTCCACCGCATCGCGCGCGGGGTTAGGGAGGGGCCTGGTCGGAGTCACCTAGTGCAG”: the binding signal is 9970 fluorescence intensity (a.u.). For the sequence “CTGCGCGCCGCCACCGCCATGCTCCCGCGCCGCCGACACCCGGAGTCACCTAGTGCAG”, the binding signal is 10100 fluorescence intensity (a.u.).
